# Results of single-concentration screens

By UniProt entry, the sequences of proteins in these tests, tags left out. Residues count along the entry.
UniProt P9WFT3, whole entry: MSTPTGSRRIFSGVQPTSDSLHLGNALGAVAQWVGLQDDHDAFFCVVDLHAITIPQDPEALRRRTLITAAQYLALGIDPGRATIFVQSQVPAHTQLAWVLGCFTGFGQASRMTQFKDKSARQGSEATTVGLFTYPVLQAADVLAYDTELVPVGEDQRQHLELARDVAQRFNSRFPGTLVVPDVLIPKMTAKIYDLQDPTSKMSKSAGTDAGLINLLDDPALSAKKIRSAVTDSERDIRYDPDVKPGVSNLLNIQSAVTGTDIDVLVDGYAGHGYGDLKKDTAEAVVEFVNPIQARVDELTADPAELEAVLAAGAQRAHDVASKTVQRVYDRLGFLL
UniProt Q8IDJ8, 1-583: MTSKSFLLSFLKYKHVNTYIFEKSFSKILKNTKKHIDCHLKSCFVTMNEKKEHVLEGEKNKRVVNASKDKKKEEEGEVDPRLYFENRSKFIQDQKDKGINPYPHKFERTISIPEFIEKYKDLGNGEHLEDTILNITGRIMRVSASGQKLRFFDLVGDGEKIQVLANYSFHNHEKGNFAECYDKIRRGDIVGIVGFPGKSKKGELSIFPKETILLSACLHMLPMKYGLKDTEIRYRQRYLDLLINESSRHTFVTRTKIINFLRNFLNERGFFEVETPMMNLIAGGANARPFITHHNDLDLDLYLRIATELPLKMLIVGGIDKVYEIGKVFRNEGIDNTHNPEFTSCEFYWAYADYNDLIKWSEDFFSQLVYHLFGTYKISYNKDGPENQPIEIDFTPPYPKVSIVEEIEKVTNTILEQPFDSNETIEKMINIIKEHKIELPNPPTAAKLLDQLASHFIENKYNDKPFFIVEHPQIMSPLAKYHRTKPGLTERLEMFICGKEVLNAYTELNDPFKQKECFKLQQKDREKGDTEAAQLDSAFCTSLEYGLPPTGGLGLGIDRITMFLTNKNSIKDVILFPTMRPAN
UniProt P9WNZ1, whole entry: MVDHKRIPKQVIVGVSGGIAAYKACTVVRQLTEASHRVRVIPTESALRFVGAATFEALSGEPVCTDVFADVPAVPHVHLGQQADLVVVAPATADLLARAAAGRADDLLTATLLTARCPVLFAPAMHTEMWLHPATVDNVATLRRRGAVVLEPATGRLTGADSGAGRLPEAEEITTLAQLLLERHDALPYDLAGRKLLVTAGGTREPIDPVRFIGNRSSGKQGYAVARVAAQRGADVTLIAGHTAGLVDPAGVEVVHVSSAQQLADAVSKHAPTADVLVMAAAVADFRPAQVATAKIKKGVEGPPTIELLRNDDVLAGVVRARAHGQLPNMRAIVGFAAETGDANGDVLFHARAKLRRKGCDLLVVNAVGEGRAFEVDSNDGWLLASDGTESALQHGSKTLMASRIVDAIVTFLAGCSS
UniProt P9WPC5, whole entry: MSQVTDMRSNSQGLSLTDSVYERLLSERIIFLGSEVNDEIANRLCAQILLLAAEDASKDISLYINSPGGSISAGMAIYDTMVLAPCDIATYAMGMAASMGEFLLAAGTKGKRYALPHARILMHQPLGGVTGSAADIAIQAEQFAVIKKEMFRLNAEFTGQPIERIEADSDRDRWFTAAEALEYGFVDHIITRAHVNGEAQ
UniProt P9WPC3, whole entry partner: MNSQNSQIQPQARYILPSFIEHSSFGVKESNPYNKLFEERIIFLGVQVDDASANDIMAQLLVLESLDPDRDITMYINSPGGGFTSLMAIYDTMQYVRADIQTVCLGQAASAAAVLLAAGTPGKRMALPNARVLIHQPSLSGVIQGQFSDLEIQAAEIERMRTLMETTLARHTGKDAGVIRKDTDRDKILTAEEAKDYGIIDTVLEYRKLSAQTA
UniProt Q4DA54, 1-478: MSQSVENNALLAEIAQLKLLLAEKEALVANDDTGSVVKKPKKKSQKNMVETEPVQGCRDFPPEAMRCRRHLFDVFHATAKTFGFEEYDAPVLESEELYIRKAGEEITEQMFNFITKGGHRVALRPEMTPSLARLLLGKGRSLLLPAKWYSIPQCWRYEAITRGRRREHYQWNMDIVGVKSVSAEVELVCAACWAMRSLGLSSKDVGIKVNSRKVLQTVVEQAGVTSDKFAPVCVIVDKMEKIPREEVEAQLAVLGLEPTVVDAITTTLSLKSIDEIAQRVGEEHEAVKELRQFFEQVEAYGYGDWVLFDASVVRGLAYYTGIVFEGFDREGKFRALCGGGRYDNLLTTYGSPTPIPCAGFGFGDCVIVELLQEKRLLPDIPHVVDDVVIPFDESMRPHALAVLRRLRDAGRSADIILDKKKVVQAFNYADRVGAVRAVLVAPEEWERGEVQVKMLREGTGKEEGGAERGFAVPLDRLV

Data taken from ChEMBL document CHEMBL3988442, “University of Dundee, Small-Polar-MMV Screening Library” (2021).

MtTrpRS: 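Enzyme assay of tryptophanyl-tRNA synthetase; the read-out is not stated. Target: Tryptophan-tRNA ligase, Mycobacterium tuberculosis (UniProt P9WFT3). Concentration: 10 µM. Direction is not recorded; retested compounds ran higher, which suggests that high means inhibition. Size under these conditions: about 65,000 compounds, about 64 of them at 50% or above in at least one test.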
PfKRS1: 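Lysine-tRNA ligase, Plasmodium falciparum 3D7 (UniProt Q8IDJ8). Enzyme assay of the cytosolic lysyl-tRNA synthetase in 384-well plates, read by luminescence. Compounds at 30 µM. Higher reads as stronger inhibition, judged from the few compounds that gave an IC50. Of about 69,000 compounds tested this way, about 49 (0.071%) reached 50% or more in at least one test.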
CoaBC: 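Enzyme assay of CoaBC with a phosphate dye (Biomol Green) read at 650 nm. Target: Coenzyme A biosynthesis protein CoaBC, Mycobacterium tuberculosis (UniProt P9WNZ1). Concentration: 30 µM. Direction is inferred from only a few compounds that gave an IC50; most scored high, so higher reads as stronger inhibition. Most strong results did not repeat in a second test. Of about 67,000 compounds tested this way, about 40 (0.06%) reached 50% or more in at least one test.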
ClpP1P2: 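Protease assay of ClpP1P2, read by the AMC dye that it sets free. Target: ClpP1P2, Mycobacterium tuberculosis (UniProt P9WPC5 and UniProt P9WPC3). Compounds at 50 µM. Higher reads as stronger inhibition, judged from the few compounds that gave an IC50. Most other retested compounds had strongly negative values. Of about 69,000 compounds tested this way, about 10 (0.015%) reached 50% or more in at least one test.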
TcHisRS: 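Enzyme assay of histidyl-tRNA synthetase; the read-out is not stated. Target: Histidine-tRNA ligase, Trypanosoma cruzi CL Brener (UniProt Q4DA54). Tested at 30 µM. Higher reads as stronger inhibition (inferred: compounds with an IC50 in retests scored well above the rest). Of about 69,000 compounds tested this way, about 31 (0.045%) reached 50% or more in at least one test.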

The filed quantity is “Percent Effect” (%). The controls that fix the scale are not given in the record; negative values are as filed. The compounds are a random part of those screened. A dash means the value is not listed here; it may have been measured.

| structure | MtTrpRS | PfKRS1 | CoaBC | ClpP1P2 | TcHisRS |
|---|---|---|---|---|---|
| `O=C1CSC(c2ccc(F)c(Cl)c2)c2c(n(C3CCOCC3)[nH]c2=O)N1` (stereo not drawn) | 1.471 | 4 | 2.273 | 4.023 | -2.924 |
| `Cn1cccc1C(=O)N1C[C@@H]2CCN(c3cccnc3)C[C@@H]2C1` | -3.704 | -3.019 | 2.284 | -1.558 | 3.941 |
| `CN1CCN(C2CCN(Cc3ccc(Cl)s3)CC2)C1=O` | -1.312 | 5.601 | -0.6483 | -3.06 | 3.03 |
| `O=C(Nc1cc(C(F)(F)F)c[nH]c1=O)N1CCSCC1` | -4.931 | 3.928 | 0.4779 | -14.56 | 5.143 |
| `NCc1ccnc(Oc2ccc(F)cc2)c1` | -3.213 | 0.2108 | 1.129 | -11.86 | 20.4 |
| `CC(NC(=O)NCCN1CCCCCC1=O)c1ccc(Cl)s1` (stereo not drawn) | -6.416 | 7.43 | 1.21 | 6.122 | 7.563 |
| `COc1ccc(CNC(=O)Nc2ccc(N3CCCC3)nc2)cc1O` | -5.226 | -0.6987 | 7.8 | -41.61 | 6.686 |
| `Cc1occc(=O)c1OCc1noc(C(=O)NC(C)C)n1` | 1.328 | -1.156 | 0.9685 | 2.658 | 2 |
| `CCCNC(=O)CNC(=O)CCc1ccccc1Br` | -5.118 | 6.625 | 13.08 | -3.924 | 2.439 |
| `CCNC(=O)Cc1ccc(NC(=O)NC(CC)CC)cc1` | 3.15 | 6.078 | -5.968 | -0.9697 | 12.5 |
| `CC(=O)NC1CCN(c2nc(N)nc3c2CCCC3)C1` (stereo not drawn) | -1.784 | 6.202 | 2.991 | -11.46 | 0.5405 |
| `Cc1nnc2n1CCN(CCCS(=O)(=O)c1ccccc1)C2` | -6.1 | 3.388 | 1.364 | -22.61 | 5.187 |
| `O=C(O)[C@@H]1CN(Cc2ccc3nsnc3c2)C[C@H]1c1ccncc1` | 1.514 | 0.8863 | - | 4.598 | 4.459 |
| `c1cnc(N2CC[C@@H]3CN(Cc4ccncc4)CCO[C@@H]3C2)nc1` | -4.509 | 4.974 | 7.128 | -0.3419 | 10.34 |
| `O=C(CO)N1C[C@H]2CN(Cc3cccc(F)c3)C(=O)[C@H]2C1` | 3.285 | 3.788 | 1.826 | -6.524 | 5.882 |
| `Cc1noc(NC(=O)c2ccc(Br)s2)n1` | -4.191 | 2.561 | 3.84 | -4.568 | 5.303 |
| `CC(C)Cc1nc(COc2ccc(N(C)C(N)=O)cc2)no1` | -1.87 | 4.513 | -0.6424 | -5.258 | 0.5236 |
| `COc1ccc(-n2nc(C)c(C(C)=O)c2C)cc1CO` | -4.156 | 1.008 | 3.306 | 0.7857 | 8.671 |
| `Cc1ccc(C(=O)NCC(O)CN2CCCC2=O)c(C)c1` (stereo not drawn) | -4.124 | 3.186 | -1.297 | 2.829 | 2.02 |
| `Cc1cnn(CC2CCCN2C(=O)c2ccc(C(N)=O)cn2)c1` (stereo not drawn) | 2.45 | 1.36 | 4.663 | 11.11 | -2.29 |
| `Cc1ccc(-c2cc(C(=O)NC(C)C(=O)N3CCCCC3)on2)cc1` (stereo not drawn) | -3.708 | 5.699 | 1.484 | 0.1479 | 2.174 |
| `Cn1cc(C2CCCN2C(=O)c2ccc(OCC3CC3)nc2)cn1` (stereo not drawn) | -6.53 | 1.682 | 5.236 | -37.85 | 2.89 |
| `CCCNC(=O)C1CCN(Cc2csc(C(C)C)n2)CC1` | 19.71 | -0.6183 | 1.312 | -15.21 | 2.857 |
| `O=C1NC[C@@]2(C(=O)O)CN(Cc3cccc(CN4CCOCC4)c3)C[C@@H]12` | -3.835 | 4.973 | 4.637 | -4.651 | 3.261 |
| `Fc1ccccc1-c1noc2c1CN(CCN1CCOCC1)CC2` | 0.9517 | 11.97 | -0.8861 | -6.086 | 1.22 |
| `Cc1nn(C)c(C)c1NC(=O)CN1CCCC1c1noc(C(C)C)n1` (stereo not drawn) | 1.175 | -2.119 | -1.711 | -11.48 | 7.216 |
| `O=C1CCC(=O)N1c1nn(Cc2ccccc2)cc1Cl` | - | -0.376 | -4.294 | -4.531 | 4.624 |
| `Cc1nc(C2CCNCC2)cc(N2CCCC(C(=O)NCCCO)C2)n1` (stereo not drawn) | -1.356 | 2.687 | 8.974 | -3.077 | -7.027 |
| `CNC(=O)C1Cc2ccccc2CN1CCCc1ccccc1` (stereo not drawn) | -0.273 | 7.388 | -3.213 | -9.345 | 7.447 |
| `c1ccc(CN2C[C@H]3CCC[C@@]3(COCC3CCOCC3)C2)nc1` | -1.621 | 1.493 | -10.36 | 0.8964 | 5.376 |
| `Cc1nc(-c2c(-c3ccccc3)ncn2CCCN2CCOCC2)c[nH]1` | -5.509 | -0.09063 | -9.274 | 1.025 | 0.5587 |
| `CN1CCCN(C(=O)c2cc(CN(C)CCc3ccccc3)on2)CC1` | 1.204 | 6.488 | 1.22 | -20.43 | 2.941 |
| `Cc1cc(C(=O)N2CCCC2CN2CCCC2)no1` (stereo not drawn) | 4.159 | 1.572 | -0.4132 | 3.976 | 7.065 |
| `O=C(NS(=O)(=O)c1ccc(C2CCCCC2)cc1)C1COCCO1` (stereo not drawn) | -0.1032 | 1.772 | - | -0.5254 | 9.091 |
| `O=C(c1cnc(NCCC2CCCO2)c(Cl)c1)N1CCCCC1` (stereo not drawn) | -3.524 | -0.3027 | 0.2445 | -0.7022 | 1.031 |
| `Cc1ccc(CN2C[C@@H]3CCN(Cc4cccnc4)C(=O)[C@H]3C2)s1` | 2.326 | 0 | -1.673 | 13.64 | 4.854 |

Repeated from the top, 2 entries:

structure,MtTrpRS,PfKRS1,CoaBC,ClpP1P2,TcHisRS
O=C1CSC(c2ccc(F)c(Cl)c2)c2c(n(C3CCOCC3)[nH]c2=O)N1 (stereo not drawn),1.471,4,2.273,4.023,-2.924
Cn1cccc1C(=O)N1C[C@@H]2CCN(c3cccnc3)C[C@@H]2C1,-3.704,-3.019,2.284,-1.558,3.941